Results from paper PMC12389522.
These are yes or no findings as the source states them, for the method shown. In cells and extracts the contact can be indirect. Some binding calls cover weakened binding; strength is not graded here.

Target: T1, SET and MYND domain-containing protein family member 5 (SMYD5) (human (endogenous in Hep3B)) (UniProt Q6GMV2)
T1 sequence: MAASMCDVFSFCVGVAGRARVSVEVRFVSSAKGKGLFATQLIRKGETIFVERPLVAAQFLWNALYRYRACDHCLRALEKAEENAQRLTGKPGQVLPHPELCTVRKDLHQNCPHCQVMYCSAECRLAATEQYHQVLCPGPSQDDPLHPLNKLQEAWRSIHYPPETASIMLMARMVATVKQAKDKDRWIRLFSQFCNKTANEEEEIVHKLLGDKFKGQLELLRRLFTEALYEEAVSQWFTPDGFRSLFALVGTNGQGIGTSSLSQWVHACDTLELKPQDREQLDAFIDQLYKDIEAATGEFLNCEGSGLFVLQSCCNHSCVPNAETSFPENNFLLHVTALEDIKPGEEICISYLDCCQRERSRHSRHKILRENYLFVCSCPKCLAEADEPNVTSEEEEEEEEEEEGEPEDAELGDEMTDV
Assay: co-IP; IP analysis of SMYD5 and p53 (Figure S7); cells and precipitating antibody not named for this experiment; the methods describe one protocol (SMYD5 antibody, A/G magnetic beads, overnight at 4 °C)

## p53 (from UniProt P04637 1-393)
  binding: binds
